Source: patent publication US9521845B2, “Beta-lactones as antibacterial agents” (LUDWIG-MAXIMILIANS-UNIVERSITÄT-MÜNCHEN, priority 2008, dated 2016)
Some entries share one result that the patent states for a list of compounds.

Test system: LLO haemolytic activity of L. monocytogenes EGDe
Experiment: LLO haemolytic activity testing of culture supernatants
Assay type: cell-based, Listeria monocytogenes EGDe
Conditions: cultures grown 16 h with 100-800 μM lactone, sheep red blood cells
Protocol: Overnight cultures of L. monocytogenes EGDe were harvested by centrifugation and resuspended in an equal volume of fresh BHB medium. In 1.5 mL Eppendorf tubes, 400 μL of BHB medium were inoculated with 4 μL of the resuspended Listeria culture and 4 μL of a corresponding beta-lactone stock in DMSO. The final concentrations were 800 μM, 400 μM, 200 μM, 100 μM and DMSO as control. The amount of DMSO in all tests was 1% of the medium. After mixing, the test tubes were incubated under continuous shaking at 200 rpm at 37° C. for 16 h. Then, cells were centrifuged and the supernatants filtered sterile by passing them through a 0.2 μm pore size filter. Haemolytic activity of LLO in the culture supernatants was quantitatively investigated according to a method described in J. Food Safety 1998, 18: 197-203 (incorporated herein by reference) with some modifications. In Nunclon™ 96-well plates with round shaped wells 100 μL of serial dilutions of the supernatants in PBS were added per well and incubated with 100 μL of 3% SRBC (sheep red blood cells) resuspended in PBS for 15 min at 37° C. under gentle shaking. The 96-well plates were centrifuged at 600 rpm for 5 min and the minimum dilution at which intact blood cells began to form a pellet was recorded. Controls with no lactone were set 100%. Buffer only controls and pure BHB medium yielded no haemolysis.

SMILES: C#CCCC[C@@H]1OC(=O)[C@H]1CCCCCCCC(=O)Sc1ccccc1 (relative stereo) [N1, trans-S-phenyl 8-(2-oxo-4-(4-pentyn-1-yl)oxetan-3-yl)octanethioate]
- reduction (inhibition) of haemolytic activity: up to 90%

SMILES: C=CCCCCCCCC1C(=O)OC1CCc1ccccc1 (centres unmarked) [U1]
- reduction (inhibition) of haemolytic activity: up to 90%
